Laboratory results published in paper PMC5095291.
No constants are given. Whether binding was seen depends on the method and setting. In cells and extracts the contact can be indirect. Some results given as binding are weak or reduced against the parent protein; the word gives no strength.

Amino acid sequences for entries named in this document (tags omitted).
UniProt Q8CFI0: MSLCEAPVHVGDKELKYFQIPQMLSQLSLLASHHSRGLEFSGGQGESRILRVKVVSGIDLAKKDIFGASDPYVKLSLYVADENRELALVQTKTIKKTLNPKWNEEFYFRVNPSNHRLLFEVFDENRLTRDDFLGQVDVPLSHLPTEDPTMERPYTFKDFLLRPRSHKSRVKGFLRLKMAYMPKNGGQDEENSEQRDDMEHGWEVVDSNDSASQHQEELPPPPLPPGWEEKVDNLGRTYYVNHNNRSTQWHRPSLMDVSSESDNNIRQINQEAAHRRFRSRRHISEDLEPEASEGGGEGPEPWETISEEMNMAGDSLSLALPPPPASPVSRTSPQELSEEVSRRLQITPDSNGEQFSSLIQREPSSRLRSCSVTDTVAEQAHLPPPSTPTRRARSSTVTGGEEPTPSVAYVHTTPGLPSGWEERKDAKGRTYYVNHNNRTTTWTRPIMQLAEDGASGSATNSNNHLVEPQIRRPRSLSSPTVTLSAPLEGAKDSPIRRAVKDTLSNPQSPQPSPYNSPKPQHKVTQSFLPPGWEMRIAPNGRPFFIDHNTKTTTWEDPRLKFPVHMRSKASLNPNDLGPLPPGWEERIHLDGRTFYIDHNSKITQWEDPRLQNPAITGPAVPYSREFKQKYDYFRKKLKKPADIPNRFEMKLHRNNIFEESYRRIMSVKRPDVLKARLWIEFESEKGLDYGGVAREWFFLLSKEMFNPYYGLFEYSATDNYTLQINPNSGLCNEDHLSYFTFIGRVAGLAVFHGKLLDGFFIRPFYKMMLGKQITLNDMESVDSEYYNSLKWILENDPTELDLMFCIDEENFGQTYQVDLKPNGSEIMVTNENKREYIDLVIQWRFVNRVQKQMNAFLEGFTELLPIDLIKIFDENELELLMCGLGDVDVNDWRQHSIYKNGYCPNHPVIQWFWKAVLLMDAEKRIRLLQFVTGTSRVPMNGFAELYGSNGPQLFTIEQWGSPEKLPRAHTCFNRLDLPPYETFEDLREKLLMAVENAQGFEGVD

Biological target: T1, Ndfip1 (Nedd4 family interacting protein 1) (mouse (endogenous in FLMCs and BMCMCs)) (UniProt Q8R0W6)
T1 sequence: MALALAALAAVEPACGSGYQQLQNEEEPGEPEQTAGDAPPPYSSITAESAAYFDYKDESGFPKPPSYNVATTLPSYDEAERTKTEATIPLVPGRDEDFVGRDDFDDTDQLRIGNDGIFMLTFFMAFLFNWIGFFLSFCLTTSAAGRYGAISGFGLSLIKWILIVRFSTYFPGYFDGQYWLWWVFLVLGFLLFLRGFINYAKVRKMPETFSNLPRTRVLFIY
Assay: co-IP; endogenous proteins in lysates of IgE anti-DNP (SPE-7) sensitised FLMCs, without or with DNP-HSA (20 ng/ml) for the indicated times; lysis buffer with 50 mM Tris, 100 mM NaCl, 5 mM EDTA, 1% Triton X-100; IP with anti-Syk, anti-p-Syk or anti-Ndfip1 on Protein A Sepharose, blot for Nedd4-2; Nedd4-2-/- FLMCs and IP without antibody as controls

For “Nedd4-2 (Neural precursor cell-expressed developmentally downregulated gene 4-like) (from UniProt Q8CFI0 1-1004) (enzyme)”, the binding was “binds”.
